Our source for the binding signal values is paper PMC7819943, “Rice protein-binding microarrays: a tool to detect cis-acting elements near promoter regions in rice”.

Protein sequences, listed by entry. Tags and fused reporters are not part of them.
UniProt Q0JBA9, entry or part of it: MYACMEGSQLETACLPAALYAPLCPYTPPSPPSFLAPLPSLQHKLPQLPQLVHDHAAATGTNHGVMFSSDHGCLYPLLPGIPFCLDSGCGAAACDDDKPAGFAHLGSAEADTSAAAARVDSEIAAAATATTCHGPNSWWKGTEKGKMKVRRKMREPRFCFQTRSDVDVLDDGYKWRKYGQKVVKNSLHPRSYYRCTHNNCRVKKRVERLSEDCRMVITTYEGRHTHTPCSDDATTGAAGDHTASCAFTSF

The list shows a part of the results.

This assay concerns the target OsWRKY34 (Oryza sativa, UniProt Q0JBA9 1-250). Briefly: protein-binding microarray (RPBM); PBS, 2% BSA, 51.3 ng/ul salmon testes DNA, 50 uM zinc acetate, 200 nM TF, 25 C, 1 h; high values mean tight binding. The settings on record: protein: recombinant; tags: N-terminal polyhistidine and DsRed monomer fusion (pET32a); label: CyDye5-dUTP incorporated in the synthesized complementary strand; 3' TTTTT single-stranded linker to array surface; dsDNA, one strand shown. A digest of the protocol:
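The binding signal is fluorescence intensity per array feature (arbitrary units). Readings came from an Axon 4000B scanner after a washed, 2% BSA-blocked, double-stranded custom Agilent array had been incubated for 1 h at 25 °C with 200 nM protein and 50 µM zinc acetate. The protein was a Ni–NTA-purified transcription factor fused N-terminally to polyhistidine and DsRed, expressed in E. coli BL21-CodonPlus.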
Regarding “ACGTGTAACTACTGTGTTTGCAGATATGGATGGGTTGGTTCGGAGTCACCTAGTGCAG”, the binding signal was 10300 fluorescence intensity (a.u.).

For “ATGTTTAATTCATGGGTGCATTCTTGTTTCTTAGGGATCACGGAGTCACCTAGTGCAG”, the binding signal is 8850 fluorescence intensity (a.u.).

With “AAACCATGTCCTACAGCTACCTGTTTTGATCTTCTTGGTTCGGAGTCACCTAGTGCAG”, the binding signal was 11200 fluorescence intensity (a.u.).

As for “TCTTCCTATTACCTCTCTCATCCTCTCCATCTCTCTAGTTCGGAGTCACCTAGTGCAG”, the binding signal was 8400 fluorescence intensity (a.u.).

In the case of “GCCTGAACCTGTCTAAATCCTTTGTCTCCACATCCATCCACGGAGTCACCTAGTGCAG”, the binding signal was 9080 fluorescence intensity (a.u.).

Take “CCGATATGACACCTAAAAATTTTCATTTCAGCAACCCTTACGGAGTCACCTAGTGCAG”: the binding signal was 8350 fluorescence intensity (a.u.).

For “GTAATCTATGAGTATACCTTTCCTAATCGTTCACGCCCTTCGGAGTCACCTAGTGCAG”, the binding signal is 8540 fluorescence intensity (a.u.).

Take “GTGCTCTCTGCTGGCTGCGACGCCATATATGCCTTTCTTCCGGAGTCACCTAGTGCAG”: the binding signal is 8720 fluorescence intensity (a.u.).

Consider “ATGCGTGGGTTTTTCTTGTCCGTCTTAGTTCAAAACGGCCCGGAGTCACCTAGTGCAG”, for which the binding signal is 13600 fluorescence intensity (a.u.).

For the sequence “TATGGTAGTGTTCTTGCTGTTTCCCGTAAAACAAGGTTCCCGGAGTCACCTAGTGCAG”, the binding signal was 8230 fluorescence intensity (a.u.).

For the sequence “GAAGTGACCCGCACCCTTCTTTGCGACGAACCTGTCACTGCGGAGTCACCTAGTGCAG”, the binding signal was 8030 fluorescence intensity (a.u.).

Take “ATATTTTCCGCCTACCCTGTACGCACGTTTATATACACAACGGAGTCACCTAGTGCAG”: the binding signal was 9400 fluorescence intensity (a.u.).

As for “TTATCTCAGCCGCTTTGTTTGTTTCTTTCTTTCTTTCTCCCGGAGTCACCTAGTGCAG”, the binding signal is 11100 fluorescence intensity (a.u.).

“CATGCGTACGAGATTAGTTCCCATCTCCTTTATCCAAACTCGGAGTCACCTAGTGCAG”: the binding signal was 8260 fluorescence intensity (a.u.).

For “TCTTCCTTTTCTTCACTTGCGGTTTCTTTCTTTCTTTTTACGGAGTCACCTAGTGCAG”, the binding signal was 9210 fluorescence intensity (a.u.).

Turning to “CTACCAACCATCTGCTTCTCATAATCTTACACTCCCCAAACGGAGTCACCTAGTGCAG”, the binding signal is 8340 fluorescence intensity (a.u.).

For “TCACCGACGATAGATCATTGACCTTTTGACCAAATGACCTCGGAGTCACCTAGTGCAG”, the binding signal was 8550 fluorescence intensity (a.u.).

As to “ACATGTTTGACCATTCGTCTTATTTAAAAATTTTATGCAACGGAGTCACCTAGTGCAG”, the binding signal is 8030 fluorescence intensity (a.u.).

As to “CAGGTTCACCATATTAATACCTACTATCCGTTATCAATTTCGGAGTCACCTAGTGCAG”, the binding signal was 9720 fluorescence intensity (a.u.).

In the case of “TAGGCATATAATTTTACATATTTCACAACAGTTTTTGAATCGGAGTCACCTAGTGCAG”, the binding signal was 9430 fluorescence intensity (a.u.).

Regarding “TTATTTTTTATTCTGAATTTTAATTAATCTCGTATTGGGTCGGAGTCACCTAGTGCAG”, the binding signal was 8670 fluorescence intensity (a.u.).

As for “GGCAATGTACAATTAGTTCTAATATCGTAATCATCGATGTCGGAGTCACCTAGTGCAG”, the binding signal was 8250 fluorescence intensity (a.u.).

Take “AAATAAGACGAACGATCAAACATAATTAAAAAAGTCAACGCGGAGTCACCTAGTGCAG”: the binding signal was 9160 fluorescence intensity (a.u.).

Consider “GGCGAGCATCCGTTTGACATTTCTTGTCTTCATCAGTTTTCGGAGTCACCTAGTGCAG”, for which the binding signal is 10700 fluorescence intensity (a.u.).

Regarding “ACATCTCCCTTTCTATTATACTGTTGGTATTCAATATTTCCGGAGTCACCTAGTGCAG”, the binding signal is 8450 fluorescence intensity (a.u.).

“CGCTCCGACGACGACAAGCTGCCACTGCTCACTGCTCTCTCGGAGTCACCTAGTGCAG”: the binding signal was 8260 fluorescence intensity (a.u.).

For “TTATTGTATTAATGTTCCTTTTATCCGTACCATTTCCGACCGGAGTCACCTAGTGCAG”, the binding signal is 10600 fluorescence intensity (a.u.).

With “GGGGAGGTCAGTACATGGTTCAAAAGCACTATGGAGTTGCCGGAGTCACCTAGTGCAG”, the binding signal was 8100 fluorescence intensity (a.u.).

For “ACCCATCCATCGCCAGCCATGCACACCCTCGCTCTGACGACGGAGTCACCTAGTGCAG”, the binding signal is 8640 fluorescence intensity (a.u.).

“TTACAAACAAAAACTCAAAATCCCTTATATTTTGGGACAGCGGAGTCACCTAGTGCAG”: the binding signal was 64700 fluorescence intensity (a.u.).

For “CGGACCGGACCGGACCACCCGCTGCCACTATCAACCACCACGGAGTCACCTAGTGCAG”, the binding signal was 10300 fluorescence intensity (a.u.).

With “GGTTTTTATGGGGTTGCTCTTTGATTTTTTTTTTCTCCTGCGGAGTCACCTAGTGCAG”, the binding signal was 12200 fluorescence intensity (a.u.).

As for “AGTTTTTGAAGGAACTTACTTTTCAGTTTTCCACGAGTCTCGGAGTCACCTAGTGCAG”, the binding signal is 8910 fluorescence intensity (a.u.).

As to “ACCGCCCCGCGTAGCCGCCGCCATCGTTTCTCCCCGACGCCGGAGTCACCTAGTGCAG”, the binding signal is 8380 fluorescence intensity (a.u.).

Take “TCGTCGGTTTCTCGAGCTTTCCGTTGATCTTGATGCGTTCCGGAGTCACCTAGTGCAG”: the binding signal was 10500 fluorescence intensity (a.u.).

As to “TTCATTCCCAAATGCCACCCGGGCCCACATGTCAGCCTCACGGAGTCACCTAGTGCAG”, the binding signal is 9900 fluorescence intensity (a.u.).

“ACTTCCGATGCGTAATAAGGCTTTAGTCCCACAACTGACGCGGAGTCACCTAGTGCAG”: the binding signal was 8630 fluorescence intensity (a.u.).

Regarding “CGCCGCCACTTCGCCCTCCGCTTCCGCCGCCGCCGCGCCGCGGAGTCACCTAGTGCAG”, the binding signal is 12900 fluorescence intensity (a.u.).

With “ATGCATTTCTTTTAGGATTTGTGATGTATTTTTCGTTTGACGGAGTCACCTAGTGCAG”, the binding signal was 9640 fluorescence intensity (a.u.).

For “CATTCCTGCGTTTTTTCTGTGTTTTGTAATCCTCTGTTTTCGGAGTCACCTAGTGCAG”, the binding signal is 14100 fluorescence intensity (a.u.).

For “TTGATGCTTAGTGGCTACTGTGTTCTGTACTACCACCCAGCGGAGTCACCTAGTGCAG”, the binding signal is 8120 fluorescence intensity (a.u.).

For “TCTTTTCGGTCTTTACATTTTCCTCTCATTTTAATCTATTCGGAGTCACCTAGTGCAG”, the binding signal was 9260 fluorescence intensity (a.u.).
